Source: article PMC4931344
These are yes or no findings as the source states them, for the method shown. In cells and extracts the contact can be indirect. Some binding calls cover weakened binding; strength is not graded here. Where a sequence is shown, tags or fusion partners need not be part of it.

T1: cMyc–FNIP2 (UniProt Q9P278)
T1 sequence: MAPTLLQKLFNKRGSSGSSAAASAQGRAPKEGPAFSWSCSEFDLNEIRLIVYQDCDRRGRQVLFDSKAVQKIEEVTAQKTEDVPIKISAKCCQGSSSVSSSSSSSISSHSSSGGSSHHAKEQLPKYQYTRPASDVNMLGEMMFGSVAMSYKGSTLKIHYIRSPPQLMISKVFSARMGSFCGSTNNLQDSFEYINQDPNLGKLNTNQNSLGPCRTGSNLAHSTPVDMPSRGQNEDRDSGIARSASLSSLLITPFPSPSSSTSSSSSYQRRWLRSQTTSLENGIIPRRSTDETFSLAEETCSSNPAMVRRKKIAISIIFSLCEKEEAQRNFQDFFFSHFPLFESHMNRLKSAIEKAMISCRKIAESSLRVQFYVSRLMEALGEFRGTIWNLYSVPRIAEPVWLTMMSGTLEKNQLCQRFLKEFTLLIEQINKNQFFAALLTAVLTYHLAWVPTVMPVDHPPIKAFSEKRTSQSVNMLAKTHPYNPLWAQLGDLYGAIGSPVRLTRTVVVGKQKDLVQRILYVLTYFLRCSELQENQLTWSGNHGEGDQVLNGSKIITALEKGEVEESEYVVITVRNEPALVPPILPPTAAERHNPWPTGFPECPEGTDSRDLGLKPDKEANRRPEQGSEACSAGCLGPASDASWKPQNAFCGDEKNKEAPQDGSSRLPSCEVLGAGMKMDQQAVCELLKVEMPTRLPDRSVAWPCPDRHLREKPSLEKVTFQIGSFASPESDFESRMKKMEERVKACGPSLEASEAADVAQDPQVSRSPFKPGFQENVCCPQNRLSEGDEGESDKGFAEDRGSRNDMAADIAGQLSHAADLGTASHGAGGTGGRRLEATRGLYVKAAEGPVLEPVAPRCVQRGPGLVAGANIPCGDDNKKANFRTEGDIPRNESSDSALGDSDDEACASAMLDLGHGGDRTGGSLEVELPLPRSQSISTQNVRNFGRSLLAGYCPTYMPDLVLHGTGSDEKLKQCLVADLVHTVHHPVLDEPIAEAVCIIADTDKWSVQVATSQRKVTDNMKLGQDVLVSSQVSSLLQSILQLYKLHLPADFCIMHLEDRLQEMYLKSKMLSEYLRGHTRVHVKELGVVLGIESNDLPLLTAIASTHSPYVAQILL


How the values were obtained:
Assay in all cases: co-IP; sequential IP from co-transfected HEK293: anti-cMyc agarose, elution with cMyc peptides, dialysis, then anti-HA agarose; immunoblot
[1] = target: T1, cMyc–FNIP2
[2] = target: HA–FNIP1 (UniProt Q8TF40)
[3] = target: HA–FNIP2 (UniProt Q9P278)

| Binder | binding [1] | binding [2] | binding [3] |
| --- | --- | --- | --- |
| HA–FNIP1 (protein, UniProt Q8TF40 1-1166) MAPTLFQKLFSKRTGLGAPGRDARDPDCGFSWPLPEFDPSQIRLIVYQDCERRGRNVLFDSSVKRRNEDISVSKLGSDAQVKVFGKCCQLKPGGDSSSSLDSSVTSSSDIKDQCLKYQGSRCSSDANMLGEMMFGSVAMSYKGSTLKIHQIRSPPQLMLSKVFTARTGSSICGSLNTLQDSLEFINQDNNTLKADNNTVINGLLGNIGLSQFCSPRRAFSEQGPLRLIRSASFFAVHSNPMDMPGRELNEDRDSGIARSASLSSLLITPFPSPNSSLTRSCASSYQRRWRRSQTTSLENGVFPRWSIEESFNLSDESCGPNPGIVRKKKIAIGVIFSLSKDEDENNKFNEFFFSHFPLFESHMNKLKSAIEQAMKMSRRSADASQRSLAYNRIVDALNEFRTTICNLYTMPRIGEPVWLTMMSGTPEKNHLCYRFMKEFTFLMENASKNQFLPALITAVLTNHLAWVPTVMPNGQPPIKIFLEKHSSQSVDMLAKTHPYNPLWAQLGDLYGAIGSPVRLARTVVVGKRQDMVQRLLYFLTYFIRCSELQETHLLENGEDEAIVMPGTVITTTLEKGEIEESEYVLVTMHRNKSSLLFKESEEIRTPNCNCKYCSHPLLGQNVENISQQEREDIQNSSKELLGISDECQMISPSDCQEENAVDVKQYRDKLRTCFDAKLETVVCTGSVPVDKCALSESGLESTEETWQSEKLLDSDSHTGKAMRSTGMVVEKKPPDKIVPASFSCEAAQTKVTFLIGDSMSPDSDTELRSQAVVDQITRHHTKPLKEERGAIDQHQETKQTTKDQSGESDTQNMVSEEPCELPCWNHSDPESMSLFDEYFNDDSIETRTIDDVPFKTSTDSKDHCCMLEFSKILCTKNNKQNNEFCKCIETVPQDSCKTCFPQQDQRDTLSILVPHGDKESSDKKIAVGTEWDIPRNESSDSALGDSESEDTGHDMTRQVSSYYGGEQEDWAEEDEIPFPGSKLIEVSAVQPNIANFGRSLLGGYCSSYVPDFVLQGIGSDERFRQCLMSDLSHAVQHPVLDEPIAEAVCIIADMDKWTVQVASSQRRVTDNKLGKEVLVSSLVSNLLHSTLQLYKHNLSPNFCVMHLEDRLQELYFKSKMLSEYLRGQMRVHVKELGVVLGIESSDLPLLAAVASTHSPYVAQILL | binds | binds |  |
| HA–FNIP2 (protein, UniProt Q9P278 1-1114) MAPTLLQKLFNKRGSSGSSAAASAQGRAPKEGPAFSWSCSEFDLNEIRLIVYQDCDRRGRQVLFDSKAVQKIEEVTAQKTEDVPIKISAKCCQGSSSVSSSSSSSISSHSSSGGSSHHAKEQLPKYQYTRPASDVNMLGEMMFGSVAMSYKGSTLKIHYIRSPPQLMISKVFSARMGSFCGSTNNLQDSFEYINQDPNLGKLNTNQNSLGPCRTGSNLAHSTPVDMPSRGQNEDRDSGIARSASLSSLLITPFPSPSSSTSSSSSYQRRWLRSQTTSLENGIIPRRSTDETFSLAEETCSSNPAMVRRKKIAISIIFSLCEKEEAQRNFQDFFFSHFPLFESHMNRLKSAIEKAMISCRKIAESSLRVQFYVSRLMEALGEFRGTIWNLYSVPRIAEPVWLTMMSGTLEKNQLCQRFLKEFTLLIEQINKNQFFAALLTAVLTYHLAWVPTVMPVDHPPIKAFSEKRTSQSVNMLAKTHPYNPLWAQLGDLYGAIGSPVRLTRTVVVGKQKDLVQRILYVLTYFLRCSELQENQLTWSGNHGEGDQVLNGSKIITALEKGEVEESEYVVITVRNEPALVPPILPPTAAERHNPWPTGFPECPEGTDSRDLGLKPDKEANRRPEQGSEACSAGCLGPASDASWKPQNAFCGDEKNKEAPQDGSSRLPSCEVLGAGMKMDQQAVCELLKVEMPTRLPDRSVAWPCPDRHLREKPSLEKVTFQIGSFASPESDFESRMKKMEERVKACGPSLEASEAADVAQDPQVSRSPFKPGFQENVCCPQNRLSEGDEGESDKGFAEDRGSRNDMAADIAGQLSHAADLGTASHGAGGTGGRRLEATRGLYVKAAEGPVLEPVAPRCVQRGPGLVAGANIPCGDDNKKANFRTEGDIPRNESSDSALGDSDDEACASAMLDLGHGGDRTGGSLEVELPLPRSQSISTQNVRNFGRSLLAGYCPTYMPDLVLHGTGSDEKLKQCLVADLVHTVHHPVLDEPIAEAVCIIADTDKWSVQVATSQRKVTDNMKLGQDVLVSSQVSSLLQSILQLYKLHLPADFCIMHLEDRLQEMYLKSKMLSEYLRGHTRVHVKELGVVLGIESNDLPLLTAIASTHSPYVAQILL |  |  | binds |
